Experimental data: the supplement of paper PMC7661543
± gives the standard deviation of the averaged measurements. Differences between knockout arms are mostly noise.

System: ZR-75-1
Assay: relative cell number vs DMSO control (72 h) (% of DMSO); higher = less growth inhibition (more cells)
Experimental: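 QMAP-Seq: a pool of 5 breast cancer cell lines (ZR-75-1, SKBR3, HCC-38, MDA-MB-231, BT-20), each carrying 12 doxycycline-inducible Cas9 sgRNA perturbations (11 knockouts plus non-targeting sgNT), was treated with compounds for 72 h at four 10-fold doses (10 nM-10 uM or 1 nM-1 uM range). Barcodes were amplified and sequenced, and cell number was interpolated from 293T spike-in standard curves. The result is expressed as % of the median of DMSO wells. Two biological replicates.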

[1] = sgRNA knockout: sgATF3, 1000 nM
[2] = sgRNA knockout: sgATF4, 1000 nM
[3] = sgRNA knockout: sgATF6, 1000 nM
[4] = sgRNA knockout: sgATG7, 1000 nM
[5] = sgRNA knockout: sgERN1, 1000 nM
[6] = sgRNA knockout: sgHSF2, 1000 nM
[7] = sgRNA knockout: sgNFE2L2, 10 nM
[8] = sgRNA knockout: sgNFE2L2, 100 nM
[9] = sgRNA knockout: sgNFE2L2, 1000 nM
[10] = sgRNA knockout: sgSLC35F2, 10 nM
[11] = sgRNA knockout: sgSLC35F2, 100 nM
[12] = sgRNA knockout: sgSLC35F2, 1000 nM
[13] = sgRNA knockout: sgXBP1, 1000 nM
[14] = sgRNA knockout: sgATF3, 10000 nM
[15] = sgRNA knockout: sgATF4, 10000 nM
[16] = sgRNA knockout: sgATF6, 10000 nM
[17] = sgRNA knockout: sgATG7, 10000 nM
[18] = sgRNA knockout: sgERN1, 10000 nM
[19] = sgRNA knockout: sgHSF2, 10000 nM
[20] = sgRNA knockout: sgNFE2L2, 10000 nM
[21] = sgRNA knockout: sgSLC35F2, 10000 nM
[22] = sgRNA knockout: sgXBP1, 10000 nM

Row | SMILES | relative cell number (sgRNA knockout: sgATF3, 10 nM) | relative cell number (sgRNA knockout: sgATF3, 100 nM) | relative cell number [1] | relative cell number (sgRNA knockout: sgATF4, 10 nM) | relative cell number (sgRNA knockout: sgATF4, 100 nM) | relative cell number [2] | relative cell number (sgRNA knockout: sgATF6, 10 nM) | relative cell number (sgRNA knockout: sgATF6, 100 nM) | relative cell number [3] | relative cell number (sgRNA knockout: sgATG7, 10 nM) | relative cell number (sgRNA knockout: sgATG7, 100 nM) | relative cell number [4] | relative cell number (sgRNA knockout: sgERN1, 10 nM) | relative cell number (sgRNA knockout: sgERN1, 100 nM) | relative cell number [5] | relative cell number (sgRNA knockout: sgHSF2, 10 nM) | relative cell number (sgRNA knockout: sgHSF2, 100 nM) | relative cell number [6] | relative cell number [7] | relative cell number [8] | also measured
1 | CC(C)C[C@H](NC(=O)[C@H](Cc1ccccc1)NC(=O)c1cnccn1)B(O)O [Bortezomib] | 109 ± 45 | 21.5 ± 11 | 15.5 ± 4.3 | 97.7 ± 36 | 23.4 ± 6.9 | 15.9 ± 7.8 | 83.5 ± 6 | 11.1 ± 6.6 | 12.7 ± 0.68 | 111 ± 7 | 13.2 ± 10 | 18.8 ± 12 | 87 ± 31 | 18.8 ± 4.8 | 16.1 ± 1.7 | 105 ± 30 | 21.2 ± 3.8 | 12.5 ± 4.1 | 97.6 ± 20 | 17.2 ± 8.5 | relative cell number (sgRNA knockout: sgATF3, 1 nM): 108 ± 16; relative cell number (sgRNA knockout: sgATF4, 1 nM): 78.8 ± 8.8; relative cell number (sgRNA knockout: sgATF6, 1 nM): 64.5 ± 2.1; relative cell number (sgRNA knockout: sgATG7, 1 nM): 82.8 ± 13; relative cell number (sgRNA knockout: sgERN1, 1 nM): 86.5 ± 32; relative cell number (sgRNA knockout: sgHSF2, 1 nM): 89.9 ± 13; relative cell number (sgRNA knockout: sgNFE2L2, 1 nM): 104 ± 4.6; relative cell number [9]: 10.6 ± 0.18; relative cell number (sgRNA knockout: sgSLC35F2, 1 nM): 45.3 ± 34; relative cell number [10]: 111 ± 49; relative cell number [11]: 21.7 ± 16; relative cell number [12]: 11.2 ± 3.6; relative cell number (sgRNA knockout: sgXBP1, 1 nM): 86.6 ± 14; relative cell number (sgRNA knockout: sgXBP1, 10 nM): 93.9 ± 12; relative cell number (sgRNA knockout: sgXBP1, 100 nM): 24.6 ± 0.86; relative cell number [13]: 13.9 ± 0.42
2 | CC(C)(C)OC(=O)CN(Cc1ccc(Cl)cc1)Cc1ccc([N+](=O)[O-])s1 [GSK4112] | 80.6 ± 18 | 118 ± 9.5 | 112 ± 35 | 89.4 ± 26 | 128 ± 3.4 | 126 ± 14 | 79.2 ± 5 | 128 ± 24 | 90.1 ± 14 | 97.7 ± 7 | 127 ± 24 | 96.2 ± 9.5 | 82.7 ± 5.6 | 92 ± 40 | 90.7 ± 7.2 | 94.2 ± 4.4 | 98.15 ± 0.21 | 95.5 ± 19 | 105 ± 22 | 111 ± 14 | relative cell number [14]: 99.1 ± 6.4; relative cell number [15]: 102 ± 11; relative cell number [16]: 100 ± 42; relative cell number [17]: 101 ± 4.7; relative cell number [18]: 80.3 ± 21; relative cell number [19]: 102 ± 21; relative cell number [9]: 94.5 ± 18; relative cell number [20]: 93.7 ± 42; relative cell number [10]: 95.9 ± 29; relative cell number [11]: 148 ± 53; relative cell number [12]: 90.576 ± 0.082; relative cell number [21]: 68.3 ± 42; relative cell number (sgRNA knockout: sgXBP1, 10 nM): 93.1 ± 6.7; relative cell number (sgRNA knockout: sgXBP1, 100 nM): 94.15 ± 0.89; relative cell number [13]: 94.7 ± 2.2; relative cell number [22]: 106 ± 42
3 | C[C@]1(O)C[C@@H](c2nc(-c3ccc4ccc(-c5ccccc5)nc4c3)c3c(N)nccn32)C1 [Linsitinib] | 127 ± 28 | 70.5 ± 17 | 68.2 ± 9.7 | 115 ± 20 | 119 ± 1.4 | 76.8 ± 16 | 83.5 ± 1.4 | 101 ± 20 | 62.7 ± 12 | 93 ± 10 | 71.1 ± 5.1 | 57.5 ± 3.3 | 92.2 ± 41 | 70.6 ± 14 | 55.5 ± 11 | 94.7 ± 3.4 | 89.9 ± 4.2 | 70.5 ± 22 | 117 ± 52 | 102 ± 16 | relative cell number [14]: 71.9 ± 15; relative cell number [15]: 78.7 ± 6.1; relative cell number [16]: 57.5 ± 2.4; relative cell number [17]: 69.2 ± 5.9; relative cell number [18]: 73.4 ± 7.7; relative cell number [19]: 81.21 ± 0.42; relative cell number [9]: 80.8 ± 4.3; relative cell number [20]: 77.7 ± 20; relative cell number [10]: 114 ± 26; relative cell number [11]: 129 ± 19; relative cell number [12]: 59.8 ± 3.9; relative cell number [21]: 66.7 ± 18; relative cell number (sgRNA knockout: sgXBP1, 10 nM): 97.1 ± 30; relative cell number (sgRNA knockout: sgXBP1, 100 nM): 93.2 ± 20; relative cell number [13]: 58 ± 4; relative cell number [22]: 68.8 ± 8.3
